The other results are listed elsewhere or left out. These are further read-outs of the screen, such as a control signal, another cell line or another target. No call is given for them. Compounds called inactive in the main read-out are mostly missing here. Words in brackets tell the shape of the fitted curve; partial curves, single points and poor fits give uncertain potencies.
Assay: qHTS Assay to Find Inhibitors of Chronic Active B-Cell Receptor Signaling
Details: ABC-DLBCL IkBa-CBG/CBR reporter, luminescence ratio (green luciferase fused to IkBa over red control in TMD8 lymphoma cells), 4 h
How it was run: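 TMD8 ABC-DLBCL cells carrying doxycycline-inducible green luciferase fused to IkappaBalpha plus unfused red luciferase were exposed to compounds (up to 46 uM) for 4 hrs at 37C. Activity came from the overlap-corrected green/red luminescence ratio.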

[1] = measured here: CBR red luminescence, cell number
[2] = measured here: IkBa-CBG green luminescence

**Q.** For COc1cccc(C2=NOC(C(=O)NCc3ccco3)C2)c1 (centres undefined), which AC50 [1] is on record?
**A.** 31.6 µM [falling, single point]

**Q.** Which AC50 [1] does the source give for C=CCc1cc(C(=O)N2CCCCC2)ccc1O here?
**A.** 32.6 µM [falling, single point]

**Q.** For CCCc1ccc(-c2c(C)sc(N)c2C#N)cc1, which AC50 [1] is on record?
**A.** 0.092 µM [rising, full curve, poor fit]

**Q.** For N=c1sc2ccccc2n1-c1ccccc1, which AC50 [1] is on record?
**A.** 1.64 µM [rising, full curve, poor fit]

**Q.** Which AC50 [1] does the source give for CCOC(=O)CC(=O)c1cc(OC)c(OC)c(OC)c1 here?
**A.** 25.9 µM [falling, single point]

**Q.** Which AC50 [1] does the source give for Cn1cc(CC(=O)NC2CCCCC2)c2ccccc21 here?
**A.** 15.8 µM [falling, partial curve]

**Q.** For Oc1ccc(Nc2nc(-c3ccc(O)cc3)cs2)cc1, which AC50 [1] is on record?
**A.** 20.6 µM [falling, partial curve]

**Q.** With Cc1oc(-c2ccc(Cl)cc2)nc1CN1CCC(C(=O)N2CCN(Cc3ccccc3)CC2)CC1 as the compound, how does the AC50 [1] read?
**A.** 23.1 µM [falling, single point]

**Q.** And the AC50 [2]?
**A.** 25.9 µM [rising, partial curve, poor fit]

**Q.** With O=c1c(-c2nc3ccccc3s2)cccn1Cc1ccccc1 as the compound, how does the AC50 [1] read?
**A.** 2.82 µM [falling, full curve]

**Q.** Which AC50 [1] does the source give for Cc1ccc2nc(NC(=O)[C@H](C)N3C(=O)C4CC=CCC4C3=O)sc2c1 (some centres undefined) here?
**A.** 20 µM [falling, partial curve, poor fit]

**Q.** With O=C(Nn1cnnc1)c1ccc(Cl)c([N+](=O)[O-])c1 as the compound, how does the AC50 [1] read?
**A.** 35.5 µM [falling, single point]

**Q.** For CCN(CC)S(=O)(=O)c1ccc(/C(O)=C(\C#N)c2nc3ccccc3n2C)cc1, which AC50 [1] is on record?
**A.** 2 µM [rising, partial curve]

**Q.** For Cc1nn(-c2ccccc2)c2c1C(O)n1c(nc3ccccc31)S2 (centres undefined), which AC50 [1] is on record?
**A.** 29.1 µM [falling, single point]

**Q.** Which AC50 [1] does the source give for O=C(CCS(=O)(=O)Cc1ccc(Cl)cc1)NCCCN1CCOCC1 here?
**A.** 3.26 µM [falling, partial curve, poor fit]

**Q.** With CCOC(=O)c1sc2nc(CSCC(=O)OCc3ccc(C(=O)OC)o3)[nH]c(=O)c2c1C as the compound, how does the AC50 [1] read?
**A.** 12.6 µM [falling, partial curve, poor fit]

**Q.** For COc1cccc(NC(=O)Cn2cnc3sc(C)c(S(=O)(=O)N4CCN(C)CC4)c3c2=O)c1, which AC50 [1] is on record?
**A.** 9.2 µM [falling, partial curve]

**Q.** Which AC50 [1] does the source give for O=C1c2ccccc2C(=O)N1CCc1nc(-c2ccncc2)no1 here?
**A.** 6.51 µM [falling, single point]

**Q.** Which results are given for CC(O)CNc1nc2c(c(=O)n(Cc3ccc(Cl)c(Cl)c3)c(=O)n2C)n1C (centres undefined)?
**A.** AC50 [1]: 12.6 µM [falling, single point]; AC50 [2]: 17.8 µM [rising, single point]

**Q.** With CCCNC(=S)NCCN1CCCCC1 as the compound, how does the AC50 [1] read?
**A.** 18.4 µM [rising, single point]

**Q.** Which AC50 [1] does the source give for O=C1CCCC(O)=C1C(C#Cc1ccccc1)C1=C(O)CCCC1=O here?
**A.** 20.6 µM [falling, single point]

**Q.** With Cc1cccc(NC(=O)CSc2nnc(NC(=O)CN3CCOCC3)s2)c1 as the compound, how does the AC50 [1] read?
**A.** 0.00461 µM [rising, full curve, poor fit]

**Q.** Which AC50 [1] does the source give for CC(=O)Nc1ccc2c(CSc3nncs3)cc(=O)oc2c1 here?
**A.** 3.16 µM [rising, partial curve, poor fit]

**Q.** With CCc1c(O)nc(SCC(=O)Nc2ccc(OC)cc2)n(C2CCCCC2)c1=O as the compound, how does the AC50 [1] read?
**A.** 6.51 µM [falling, single point]

**Q.** Which AC50 [1] does the source give for COc1ccccc1C(=O)NCCC(=O)Nc1cccc(C)n1 here?
**A.** 6.31 µM [rising, single point]

**Q.** Which AC50 [1] does the source give for Cc1ccc2[nH]c(=O)c(CN(Cc3cccs3)C(=S)NCc3ccco3)cc2c1 here?
**A.** 7.31 µM [falling, partial curve]

**Q.** With COCCNC(=O)CSc1nc2cc3c(cc2c(=O)n1CCCC(=O)NCCc1ccc(OC)c(OC)c1)OCO3 as the compound, how does the AC50 [1] read?
**A.** 4.47 µM [rising, full curve, poor fit]

**Q.** For O=C(COc1ccccc1[N+](=O)[O-])N(Cc1ccco1)C1CCS(=O)(=O)C1 (centres undefined), which AC50 [1] is on record?
**A.** 11.2 µM [falling, partial curve]

**Q.** With CC(=O)Nc1ccc(N=Nc2ccccc2)cc1 as the compound, how does the AC50 [1] read?
**A.** 0.82 µM [rising, partial curve]

**Q.** With Cc1cc(CNC(=O)c2ccc3oc(C(C)C)nc3c2)nn1C as the compound, how does the AC50 [1] read?
**A.** 1.12 µM [rising, full curve, poor fit]

**Q.** For CC(C)[C@H](NC(=O)c1ccccc1)C(=O)OCc1nc2scc(-c3ccccc3)c2c(=O)[nH]1, which AC50 [1] is on record?
**A.** 29.1 µM [falling, single point]

**Q.** Which AC50 [1] does the source give for COC(=O)c1cc(C(=O)Nc2nc3ccccc3[nH]2)cc([N+](=O)[O-])c1 here?
**A.** 2.82 µM [falling, partial curve, poor fit]

**Q.** For CCCCCNc1nc(-c2ccccc2)cs1, which AC50 [1] is on record?
**A.** 16.4 µM [falling, single point]

**Q.** For Cc1ccc(C(=O)Oc2ccc(C(=O)COC(=O)C3CC(=O)N(Cc4ccco4)C3)cc2)cc1 (centres undefined), which AC50 [1] is on record?
**A.** 0.651 µM [rising, full curve, poor fit]

**Q.** With COc1cc(OC)cc(C(=O)NC(C(=O)N2CCc3ccccc3C2)C(C)C)c1 (centres undefined) as the compound, how does the AC50 [1] read?
**A.** 1 µM [falling, full curve, poor fit]

**Q.** Which AC50 [1] does the source give for CS(=O)(=O)N1N=C(c2ccc(Br)cc2)CC1c1cccs1 (centres undefined) here?
**A.** 0.517 µM [rising, full curve]

**Q.** Which AC50 [1] does the source give for Cc1ccc(SC(=O)c2c(C)noc2-c2cc(C)on2)cc1 here?
**A.** 14.1 µM [falling, partial curve, poor fit]

**Q.** And the AC50 [2]?
**A.** 12.6 µM [rising, partial curve, poor fit]

**Q.** For Cc1ccccc1Nc1c([N+](=O)[O-])ccc2nonc12, which AC50 [1] is on record?
**A.** 35.5 µM [rising, single point]

**Q.** With C=CCn1c(SCC(=O)Nc2cccc(OC)c2)nnc1-c1cccnc1 as the compound, how does the AC50 [1] read?
**A.** 7.31 µM [falling, partial curve, poor fit]

**Q.** With Cc1oc(-c2ccc(-c3ccccc3)cc2)nc1CN(CCO)C(C)C as the compound, how does the AC50 [1] read?
**A.** 0.251 µM [falling, full curve]

**Q.** For Cc1cccc(/C=N/NC(=O)c2ccc(Br)cc2)c1, which AC50 [1] is on record?
**A.** 4.61 µM [rising, single point]

**Q.** For Cc1ccc(-c2nnc(Cc3ccc([N+](=O)[O-])cc3)o2)cc1, which AC50 [1] is on record?
**A.** 0.316 µM [falling, full curve, poor fit]

**Q.** What does the source list for O=C(Nc1cccc(-c2nc3cccnc3s2)c1)C1c2ccccc2Oc2ccccc21?
**A.** AC50 [1]: 18.4 µM [rising, single point]; AC50 [2]: 20.6 µM [falling, single point]

**Q.** For Cc1nc(CNS(=O)(=O)c2cc(C)c(C)cc2C)cs1, which AC50 [1] is on record?
**A.** 23.1 µM [rising, single point]

**Q.** With O=C(NCc1ccc2c(c1)OCO2)c1cc2ncc(Br)cn2n1 as the compound, how does the AC50 [1] read?
**A.** 5.17 µM [falling, single point]

**Q.** With COc1ccc(NCc2n[nH]c(=O)c3ccccc23)cc1 as the compound, how does the AC50 [1] read?
**A.** 3.26 µM [rising, full curve, poor fit]

**Q.** For Cc1[nH]c(=O)c(C#N)c(C)c1Cc1ccc(Cl)cc1Cl, which AC50 [1] is on record?
**A.** 0.562 µM [falling, full curve]

**Q.** Which AC50 [1] does the source give for CCOc1ccc(CCNC(=O)CCCN2C(=O)c3ccccc3C2=O)cc1OCC here?
**A.** 35.5 µM [rising, single point]

**Q.** With NC(=S)Nc1ncc(CCN2CCOCC2)c(-c2ccc(F)cc2)n1 as the compound, how does the AC50 [1] read?
**A.** 1.12 µM [rising, full curve, poor fit]

**Q.** With COc1ccc(CCNc2ncnc3c2nnn3C)cc1OC as the compound, how does the AC50 [1] read?
**A.** 11.2 µM [falling, partial curve]

**Q.** Which AC50 [1] does the source give for O=C(Nc1nccc(-c2cccs2)n1)c1ccccc1Cl here?
**A.** 7.94 µM [falling, partial curve]

**Q.** Which AC50 [1] does the source give for O=C(Nc1cc(SCCO)cc([N+](=O)[O-])c1)c1ccc(Br)o1 here?
**A.** 10.3 µM [falling, partial curve, poor fit]

**Q.** Which AC50 [1] does the source give for O=C(NCC(O)c1ccc([N+](=O)[O-])cc1)c1cccc(S(=O)(=O)N2CCCC2)c1 (centres undefined) here?
**A.** 6.31 µM [rising, single point]

**Q.** With Cc1ccc(N2C(=O)/C(=C/c3cccnc3)SC2=S)cc1 as the compound, how does the AC50 [1] read?
**A.** 2.91 µM [rising, full curve, poor fit]

**Q.** With O=C(Nc1ccccc1Oc1ccccc1)c1cccs1 as the compound, how does the AC50 [1] read?
**A.** 35.5 µM [rising, single point]

**Q.** With Cc1cc(C)n(CCO)c(=O)n1 as the compound, how does the AC50 [1] read?
**A.** 29.1 µM [rising, single point]

**Q.** What about the AC50 [2] of the same compound?
**A.** 18.4 µM [falling, partial curve, poor fit]

**Q.** With Cn1cnc2c1c(=O)n(Cc1cccc(Br)c1)c(=O)n2C as the compound, how does the AC50 [1] read?
**A.** 25.9 µM [falling, single point]

**Q.** With COc1cccc(OCCNc2cc(N3CCOCC3)ccc2[N+](=O)[O-])c1 as the compound, how does the AC50 [2] read?
**A.** 16.4 µM [falling, partial curve, poor fit]

**Q.** Which AC50 [1] does the source give for CC(C)Oc1snc(Cl)c1C(N)=O here?
**A.** 18.4 µM [rising, single point]

**Q.** With CCOC(=O)c1c(-c2ccccc2)cn2c(C)cc(C)nc12 as the compound, how does the AC50 [1] read?
**A.** 14.1 µM [falling, single point]

**Q.** Which AC50 [1] does the source give for Cc1cccc(C2=NNC(=O)C(c3ccc(Cl)cc3)C2)c1 (centres undefined) here?
**A.** 20 µM [falling, single point]

**Q.** With COc1ccc(OCC(=O)Nc2cc(-c3nn(C)c(=O)c4ccccc34)ccc2N2CCOCC2)cc1 as the compound, how does the AC50 [1] read?
**A.** 4.47 µM [rising, single point]

**Q.** For COc1ccc(NC(=O)c2cc(Br)ccc2Cl)c(OC)c1, which AC50 [1] is on record?
**A.** 18.4 µM [rising, partial curve, poor fit]

**Q.** Which AC50 [1] does the source give for COc1ccc2[nH]c(CN3CCN(CC(C)C)C(CCO)C3)c(C)c2c1 (centres undefined) here?
**A.** 0.355 µM [falling, full curve, poor fit]

**Q.** For Brc1ccc(-c2nnc3sc(CN4CCC5(CC4)OCCO5)cn23)cc1, which AC50 [1] is on record?
**A.** 4.61 µM [rising, full curve]
